These are yes or no findings as the source states them, for the method shown. Some entries that bind do so weakly or less than the wild type.
B1: 53Hu37 variant VH N105F / VL S92R (antibody, V domains shown)
VH: EVQLLESGGGLVQPGGSLRLSCAASGFTFTSYAMSWVRQAPGKGLEWVATISHGGTYTYYPDSVKGRFTISRDNAKNTLYLQMNSLRAEDTAVYYCARHPIYSGFYQGYFDYWGQGTLVTVSS
VL: DIQLTQSPSFLSASVGDRVTITCRASSGVNYLYWYQQKPGKAPKLWIYFTSTLASGVPSRFSGSGSGNEYTLTISSLQPEDFATYYCQQFTRSPYTFGQGTKLEIK
B2: 53Hu37 variant VH N105W / VL 53Hu37 (antibody, V domains shown)
VH: EVQLLESGGGLVQPGGSLRLSCAASGFTFTSYAMSWVRQAPGKGLEWVATISHGGTYTYYPDSVKGRFTISRDNAKNTLYLQMNSLRAEDTAVYYCARHPIYSGWYQGYFDYWGQGTLVTVSS
VL: DIQLTQSPSFLSASVGDRVTITCRASSGVNYLYWYQQKPGKAPKLWIYFTSTLASGVPSRFSGSGSGNEYTLTISSLQPEDFATYYCQQFTSSPYTFGQGTKLEIK
B3: 53Hu37 variant VH S103I / VL N30R/S92R (antibody, V domains shown)
VH: EVQLLESGGGLVQPGGSLRLSCAASGFTFTSYAMSWVRQAPGKGLEWVATISHGGTYTYYPDSVKGRFTISRDNAKNTLYLQMNSLRAEDTAVYYCARHPIYIGNYQGYFDYWGQGTLVTVSS
VL: DIQLTQSPSFLSASVGDRVTITCRASSGVRYLYWYQQKPGKAPKLWIYFTSTLASGVPSRFSGSGSGNEYTLTISSLQPEDFATYYCQQFTRSPYTFGQGTKLEIK
B4: 53Hu37 variant VH S103R / VL N30R/S92R (antibody, V domains shown)
VH: EVQLLESGGGLVQPGGSLRLSCAASGFTFTSYAMSWVRQAPGKGLEWVATISHGGTYTYYPDSVKGRFTISRDNAKNTLYLQMNSLRAEDTAVYYCARHPIYRGNYQGYFDYWGQGTLVTVSS
VL: DIQLTQSPSFLSASVGDRVTITCRASSGVRYLYWYQQKPGKAPKLWIYFTSTLASGVPSRFSGSGSGNEYTLTISSLQPEDFATYYCQQFTRSPYTFGQGTKLEIK
B5: 53Hu37 variant VH S103M / VL N30R/S92R (antibody, V domains shown)
VH: EVQLLESGGGLVQPGGSLRLSCAASGFTFTSYAMSWVRQAPGKGLEWVATISHGGTYTYYPDSVKGRFTISRDNAKNTLYLQMNSLRAEDTAVYYCARHPIYMGNYQGYFDYWGQGTLVTVSS
VL: DIQLTQSPSFLSASVGDRVTITCRASSGVRYLYWYQQKPGKAPKLWIYFTSTLASGVPSRFSGSGSGNEYTLTISSLQPEDFATYYCQQFTRSPYTFGQGTKLEIK
B6: 53Hu37 variant VH N105W / VL S92R (antibody, V domains shown)
VH: EVQLLESGGGLVQPGGSLRLSCAASGFTFTSYAMSWVRQAPGKGLEWVATISHGGTYTYYPDSVKGRFTISRDNAKNTLYLQMNSLRAEDTAVYYCARHPIYSGWYQGYFDYWGQGTLVTVSS
VL: DIQLTQSPSFLSASVGDRVTITCRASSGVNYLYWYQQKPGKAPKLWIYFTSTLASGVPSRFSGSGSGNEYTLTISSLQPEDFATYYCQQFTRSPYTFGQGTKLEIK
B7: 53Hu37 variant VH S103P / VL N30R/S92R (antibody, V domains shown)
VH: EVQLLESGGGLVQPGGSLRLSCAASGFTFTSYAMSWVRQAPGKGLEWVATISHGGTYTYYPDSVKGRFTISRDNAKNTLYLQMNSLRAEDTAVYYCARHPIYPGNYQGYFDYWGQGTLVTVSS
VL: DIQLTQSPSFLSASVGDRVTITCRASSGVRYLYWYQQKPGKAPKLWIYFTSTLASGVPSRFSGSGSGNEYTLTISSLQPEDFATYYCQQFTRSPYTFGQGTKLEIK
B8: 53Hu37 variant VH S103D / VL N30R/S92R (antibody, V domains shown)
VH: EVQLLESGGGLVQPGGSLRLSCAASGFTFTSYAMSWVRQAPGKGLEWVATISHGGTYTYYPDSVKGRFTISRDNAKNTLYLQMNSLRAEDTAVYYCARHPIYDGNYQGYFDYWGQGTLVTVSS
VL: DIQLTQSPSFLSASVGDRVTITCRASSGVRYLYWYQQKPGKAPKLWIYFTSTLASGVPSRFSGSGSGNEYTLTISSLQPEDFATYYCQQFTRSPYTFGQGTKLEIK
B9: 53Hu37 variant VH S103N / VL N30R/S92R (antibody, V domains shown)
VH: EVQLLESGGGLVQPGGSLRLSCAASGFTFTSYAMSWVRQAPGKGLEWVATISHGGTYTYYPDSVKGRFTISRDNAKNTLYLQMNSLRAEDTAVYYCARHPIYNGNYQGYFDYWGQGTLVTVSS
VL: DIQLTQSPSFLSASVGDRVTITCRASSGVRYLYWYQQKPGKAPKLWIYFTSTLASGVPSRFSGSGSGNEYTLTISSLQPEDFATYYCQQFTRSPYTFGQGTKLEIK
B10: 53Hu37 variant VH S103V / VL N30R/S92R (antibody, V domains shown)
VH: EVQLLESGGGLVQPGGSLRLSCAASGFTFTSYAMSWVRQAPGKGLEWVATISHGGTYTYYPDSVKGRFTISRDNAKNTLYLQMNSLRAEDTAVYYCARHPIYVGNYQGYFDYWGQGTLVTVSS
VL: DIQLTQSPSFLSASVGDRVTITCRASSGVRYLYWYQQKPGKAPKLWIYFTSTLASGVPSRFSGSGSGNEYTLTISSLQPEDFATYYCQQFTRSPYTFGQGTKLEIK
B11: 53Hu37 variant VH S103W / VL N30R/S92R (antibody, V domains shown)
VH: EVQLLESGGGLVQPGGSLRLSCAASGFTFTSYAMSWVRQAPGKGLEWVATISHGGTYTYYPDSVKGRFTISRDNAKNTLYLQMNSLRAEDTAVYYCARHPIYWGNYQGYFDYWGQGTLVTVSS
VL: DIQLTQSPSFLSASVGDRVTITCRASSGVRYLYWYQQKPGKAPKLWIYFTSTLASGVPSRFSGSGSGNEYTLTISSLQPEDFATYYCQQFTRSPYTFGQGTKLEIK
B12: 53Hu37 variant VH S103L / VL N30R/S92R (antibody, V domains shown)
VH: EVQLLESGGGLVQPGGSLRLSCAASGFTFTSYAMSWVRQAPGKGLEWVATISHGGTYTYYPDSVKGRFTISRDNAKNTLYLQMNSLRAEDTAVYYCARHPIYLGNYQGYFDYWGQGTLVTVSS
VL: DIQLTQSPSFLSASVGDRVTITCRASSGVRYLYWYQQKPGKAPKLWIYFTSTLASGVPSRFSGSGSGNEYTLTISSLQPEDFATYYCQQFTRSPYTFGQGTKLEIK
B13: 53Hu37 variant VH S103A / VL N30R/S92R (antibody, V domains shown)
VH: EVQLLESGGGLVQPGGSLRLSCAASGFTFTSYAMSWVRQAPGKGLEWVATISHGGTYTYYPDSVKGRFTISRDNAKNTLYLQMNSLRAEDTAVYYCARHPIYAGNYQGYFDYWGQGTLVTVSS
VL: DIQLTQSPSFLSASVGDRVTITCRASSGVRYLYWYQQKPGKAPKLWIYFTSTLASGVPSRFSGSGSGNEYTLTISSLQPEDFATYYCQQFTRSPYTFGQGTKLEIK
B14: 53Hu37 variant VH S103H / VL N30R/S92R (antibody, V domains shown)
VH: EVQLLESGGGLVQPGGSLRLSCAASGFTFTSYAMSWVRQAPGKGLEWVATISHGGTYTYYPDSVKGRFTISRDNAKNTLYLQMNSLRAEDTAVYYCARHPIYHGNYQGYFDYWGQGTLVTVSS
VL: DIQLTQSPSFLSASVGDRVTITCRASSGVRYLYWYQQKPGKAPKLWIYFTSTLASGVPSRFSGSGSGNEYTLTISSLQPEDFATYYCQQFTRSPYTFGQGTKLEIK
B15: 53Hu37 variant VH S103E / VL N30R/S92R (antibody, V domains shown)
VH: EVQLLESGGGLVQPGGSLRLSCAASGFTFTSYAMSWVRQAPGKGLEWVATISHGGTYTYYPDSVKGRFTISRDNAKNTLYLQMNSLRAEDTAVYYCARHPIYEGNYQGYFDYWGQGTLVTVSS
VL: DIQLTQSPSFLSASVGDRVTITCRASSGVRYLYWYQQKPGKAPKLWIYFTSTLASGVPSRFSGSGSGNEYTLTISSLQPEDFATYYCQQFTRSPYTFGQGTKLEIK
B16: 53Hu37 variant VH S103F / VL N30R/S92R (antibody, V domains shown)
VH: EVQLLESGGGLVQPGGSLRLSCAASGFTFTSYAMSWVRQAPGKGLEWVATISHGGTYTYYPDSVKGRFTISRDNAKNTLYLQMNSLRAEDTAVYYCARHPIYFGNYQGYFDYWGQGTLVTVSS
VL: DIQLTQSPSFLSASVGDRVTITCRASSGVRYLYWYQQKPGKAPKLWIYFTSTLASGVPSRFSGSGSGNEYTLTISSLQPEDFATYYCQQFTRSPYTFGQGTKLEIK
B17: 53Hu37 variant VH S103Q / VL N30R/S92R (antibody, V domains shown)
VH: EVQLLESGGGLVQPGGSLRLSCAASGFTFTSYAMSWVRQAPGKGLEWVATISHGGTYTYYPDSVKGRFTISRDNAKNTLYLQMNSLRAEDTAVYYCARHPIYQGNYQGYFDYWGQGTLVTVSS
VL: DIQLTQSPSFLSASVGDRVTITCRASSGVRYLYWYQQKPGKAPKLWIYFTSTLASGVPSRFSGSGSGNEYTLTISSLQPEDFATYYCQQFTRSPYTFGQGTKLEIK
B18: 53Hu37 variant VH S103T / VL N30R/S92R (antibody, V domains shown)
VH: EVQLLESGGGLVQPGGSLRLSCAASGFTFTSYAMSWVRQAPGKGLEWVATISHGGTYTYYPDSVKGRFTISRDNAKNTLYLQMNSLRAEDTAVYYCARHPIYTGNYQGYFDYWGQGTLVTVSS
VL: DIQLTQSPSFLSASVGDRVTITCRASSGVRYLYWYQQKPGKAPKLWIYFTSTLASGVPSRFSGSGSGNEYTLTISSLQPEDFATYYCQQFTRSPYTFGQGTKLEIK
B19: 53Hu37 variant VH S103C / VL N30R/S92R (antibody, V domains shown)
VH: EVQLLESGGGLVQPGGSLRLSCAASGFTFTSYAMSWVRQAPGKGLEWVATISHGGTYTYYPDSVKGRFTISRDNAKNTLYLQMNSLRAEDTAVYYCARHPIYCGNYQGYFDYWGQGTLVTVSS
VL: DIQLTQSPSFLSASVGDRVTITCRASSGVRYLYWYQQKPGKAPKLWIYFTSTLASGVPSRFSGSGSGNEYTLTISSLQPEDFATYYCQQFTRSPYTFGQGTKLEIK
B20: 53Hu37 variant VH S103K / VL N30R/S92R (antibody, V domains shown)
VH: EVQLLESGGGLVQPGGSLRLSCAASGFTFTSYAMSWVRQAPGKGLEWVATISHGGTYTYYPDSVKGRFTISRDNAKNTLYLQMNSLRAEDTAVYYCARHPIYKGNYQGYFDYWGQGTLVTVSS
VL: DIQLTQSPSFLSASVGDRVTITCRASSGVRYLYWYQQKPGKAPKLWIYFTSTLASGVPSRFSGSGSGNEYTLTISSLQPEDFATYYCQQFTRSPYTFGQGTKLEIK
B21: 53Hu37 variant VH S103G / VL N30R/S92R (antibody, V domains shown)
VH: EVQLLESGGGLVQPGGSLRLSCAASGFTFTSYAMSWVRQAPGKGLEWVATISHGGTYTYYPDSVKGRFTISRDNAKNTLYLQMNSLRAEDTAVYYCARHPIYGGNYQGYFDYWGQGTLVTVSS
VL: DIQLTQSPSFLSASVGDRVTITCRASSGVRYLYWYQQKPGKAPKLWIYFTSTLASGVPSRFSGSGSGNEYTLTISSLQPEDFATYYCQQFTRSPYTFGQGTKLEIK

Amino acid sequences for entries named in this document (tags omitted).
UniProt P49682: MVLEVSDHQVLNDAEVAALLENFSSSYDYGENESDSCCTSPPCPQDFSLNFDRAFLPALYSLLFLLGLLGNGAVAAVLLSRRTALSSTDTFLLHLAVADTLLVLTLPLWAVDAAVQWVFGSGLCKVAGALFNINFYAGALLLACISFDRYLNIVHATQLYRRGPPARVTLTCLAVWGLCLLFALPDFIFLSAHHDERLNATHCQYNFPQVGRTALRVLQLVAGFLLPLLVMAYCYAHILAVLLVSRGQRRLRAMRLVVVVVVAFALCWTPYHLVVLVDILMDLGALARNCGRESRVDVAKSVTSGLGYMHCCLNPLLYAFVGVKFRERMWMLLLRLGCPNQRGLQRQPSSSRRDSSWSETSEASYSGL

target: recombinant human CXCR3 (human) (UniProt P49682); experiment: Biacore, binding avidity to recombinant human CXCR3

binding, binds:
B1, B2, B3, B4, B5, B6, B7, B8, B9, B10, B11, B12, B13, B14, B15, B16, B17, B18, B19, B20, B21

Source: patent publication US20180214542A1
